The source of these data is PubChem BioAssay AID256 (DTP/NCI, 2004).

This assay deals with CD2F1 mice, L1210 leukemia ip, survival T/C. Kind of assay: NCI In Vivo Anticancer Drug Screen. Data for tumor model L1210 Leukemia (intraperitoneal) in CD2F1 (CDF1) mice. The conditions noted are these: higher T/C = longer survival. In a few lines: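 Tumor-bearing mice (transplanted tumor) were split into treated and vehicle control groups, and the measured endpoint of each treated group was divided by that of its vehicle controls.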

The mark [1] stands for this setting: T/C endpoint: mean survival time, dose: 20.0 mg/kg/injection, schedule: Q01DX009 (ip), vehicle: Klucel (hydroxypropylcellulose) (HPC).
Setting [2] is: T/C endpoint: mean survival time, dose: 3.13 mg/kg/injection, schedule: Q01DX009 (ip), vehicle: water.
Setting [3] is: T/C endpoint: mean survival time, dose: 6.25 mg/kg/injection, schedule: Q01DX009 (ip), vehicle: water.
Setting [4] is: T/C endpoint: mean survival time, dose: 400.0 mg/kg/injection, schedule: Q04DX003 (ip), vehicle: saline with Tween-80.
Where [5] appears, read: T/C endpoint: mean survival time, dose: 400.0 mg/kg/injection, schedule: Q01DX009 (ip), vehicle: saline with Tween-80.

Each structure is given as a SMILES string. The list is a part of this screen's results and no random one: it is rich in T/C values a quarter to a half above the control, in often repeated tests (any T/C) and in doses without a T/C. Other doses and runs of a compound stand elsewhere. T/C is the treated group as % of the vehicle group. Some doses have a count of surviving animals in place of a T/C: the source holds a T/C of zero for them, seemingly a mark for toxic or unscored doses. Some survivor counts are full or nearly so, which does not show that the dose was tolerated: survival well below the control is almost never listed, so the zero probably covers shortened survival too. Counts of survivors are from the toxicity check (mostly the fifth day) where no day follows; animals may have died later. Schedule codes are those of the source, read here as Q, the interval in days (D) or hours (H), X, the number of doses. Some doses were run more than once; the results are listed from low to high. For survival time, the PubChem record calls one and a half times the control and up active, and a quarter to a half above the control has no call in these data; cut-offs in other NCI protocols can differ. Some T/C values carry the count of animals alive at the toxicity check (mostly the fifth day); where none is given, no animal had died by that day.

As to `c1ccc2c(NCCCCCCNc3c4ccccc4nc4ccccc34)c3ccccc3nc2c1`, the T/C is, setting by setting: (T/C endpoint: mean survival time, dose: 2.5 mg/kg/injection, schedule: Q01DX009 (ip), vehicle: Klucel (hydroxypropylcellulose) (HPC)) 126 % of control [9 of 10 alive]; (T/C endpoint: mean survival time, dose: 5.0 mg/kg/injection, schedule: Q01DX009 (ip), vehicle: Klucel (hydroxypropylcellulose) (HPC)) 128 % of control; (T/C endpoint: mean survival time, dose: 10.0 mg/kg/injection, schedule: Q01DX009 (ip), vehicle: Klucel (hydroxypropylcellulose) (HPC)) 129 and 143 % of control [8 of 10 alive]; under setting [1], 125 % of control. Moreover, the survivor count is, setting by setting: under setting [1], 4 of 10; (T/C endpoint: mean survival time, dose: 40.0 mg/kg/injection, schedule: Q01DX009 (ip), vehicle: Klucel (hydroxypropylcellulose) (HPC)) 0 of 10 and 4 of 6.

Turning to `CN1CCCC1CN1c2ccccc2Sc2ccccc21` (stereo unspecified), the survivor count is, setting by setting: (T/C endpoint: mean survival time, dose: 200.0 mg/kg/injection, schedule: Q04DX003 (ip), vehicle: saline) 0 of 6; (T/C endpoint: mean survival time, dose: 400.0 mg/kg/injection, schedule: Q04DX003 (ip), vehicle: saline) 0 of 6.

With `CN(C)N=Nc1cccc(NC(N)=O)c1`, the T/C (T/C endpoint: mean survival time, dose: 39.5 mg/kg/injection, schedule: Q01DX009 (ip), vehicle: Klucel (hydroxypropylcellulose) (HPC)) is 132 % of control. Besides, the survivor count reads like this: (T/C endpoint: mean survival time, dose: 118.0 mg/kg/injection, schedule: Q01DX009 (ip), vehicle: Klucel (hydroxypropylcellulose) (HPC)) 5 of 6; (T/C endpoint: mean survival time, dose: 177.0 mg/kg/injection, schedule: Q01DX009 (ip), vehicle: Klucel (hydroxypropylcellulose) (HPC)) 1 of 6; (T/C endpoint: mean survival time, dose: 266.0 mg/kg/injection, schedule: Q01DX009 (ip), vehicle: Klucel (hydroxypropylcellulose) (HPC)) 0 of 6; (T/C endpoint: mean survival time, dose: 400.0 mg/kg/injection, schedule: Q01DX009 (ip), vehicle: Klucel (hydroxypropylcellulose) (HPC)) 0 of 6.

With `O=C1N[C@@H]([C@H]2CC[C@H](Cl)CN2)C(=O)N[C@H]1[C@H]1CC[C@H](Cl)CN1`, the T/C was 143 % of control (T/C endpoint: mean survival time, dose: 0.25 mg/kg/injection, schedule: Q03HX024 (ip), vehicle: saline); 113, 116, 117, 120, 125, 136 % of control (T/C endpoint: mean survival time, dose: 0.39 mg/kg/injection, schedule: Q01DX009 (ip), vehicle: water); 135 % of control (T/C endpoint: mean survival time, dose: 0.5 mg/kg/injection, schedule: Q01DX009 (ip), vehicle: saline); 130 % of control (T/C endpoint: mean survival time, dose: 0.5 mg/kg/injection, schedule: Q01DX009 (sc), vehicle: saline); 145 % of control (T/C endpoint: mean survival time, dose: 0.5 mg/kg/injection, schedule: Q03HX008 (ip), vehicle: saline); 130, 134, 139, 145, 148, 150 % of control [2 of 3 alive] (T/C endpoint: mean survival time, dose: 0.78 mg/kg/injection, schedule: Q01DX009 (ip), vehicle: water). Further, the T/C (T/C endpoint: mean survival time, dose: 1.0 mg/kg/injection, schedule: Q01DX009 (iv), vehicle: saline) was 126 % of control; the T/C (T/C endpoint: mean survival time, dose: 1.0 mg/kg/injection, schedule: Q01DX009 (sc), vehicle: saline) was 147 % of control; the T/C (T/C endpoint: mean survival time, dose: 1.0 mg/kg/injection, schedule: Q04DX003 (ip), vehicle: saline) is 135 % of control; the T/C (T/C endpoint: mean survival time, dose: 1.56 mg/kg/injection, schedule: Q01DX009 (ip), vehicle: water) is 140, 159, 184, 186, 197, 201 % of control; the T/C (T/C endpoint: mean survival time, dose: 2.0 mg/kg/injection, schedule: Q01DX001 (ip), vehicle: saline) is 130 % of control; the T/C (T/C endpoint: mean survival time, dose: 2.0 mg/kg/injection, schedule: Q01DX001 (oral), vehicle: saline) was 132 % of control. Also, the T/C (T/C endpoint: mean survival time, dose: 2.0 mg/kg/injection, schedule: Q01DX009 (sc), vehicle: saline) is 145 % of control; the T/C (T/C endpoint: mean survival time, dose: 2.0 mg/kg/injection, schedule: Q04DX003 (ip), vehicle: saline) is 130 % of control; the T/C (T/C endpoint: mean survival time, dose: 2.0 mg/kg/injection, schedule: Q08DX002 (ip), vehicle: saline) is 143 % of control; the T/C (T/C endpoint: mean survival time, dose: 2.5 mg/kg/injection, schedule: Q01DX001 (ip), vehicle: water) is 145 % of control; the T/C under setting [2] is listed as 106, 225, 232, 250, 282 % of control; the T/C (T/C endpoint: mean survival time, dose: 4.0 mg/kg/injection, schedule: Q01DX001 (ip), vehicle: saline) is 148 % of control. Further, the T/C is 127 % of control (T/C endpoint: mean survival time, dose: 4.0 mg/kg/injection, schedule: Q01DX001 (iv), vehicle: saline); 135 % of control [9 of 10 alive] (T/C endpoint: mean survival time, dose: 4.0 mg/kg/injection, schedule: Q01DX001 (oral), vehicle: saline); 136 % of control (T/C endpoint: mean survival time, dose: 4.0 mg/kg/injection, schedule: Q01DX001 (sc), vehicle: saline); 142 % of control (T/C endpoint: mean survival time, dose: 4.0 mg/kg/injection, schedule: Q08DX002 (oral), vehicle: saline); 160, 163, 167, 217, 234 % of control (T/C endpoint: mean survival time, dose: 4.4 mg/kg/injection, schedule: Q01DX001 (ip), vehicle: saline); 102, 103, 108, 127 % of control under setting [3]. Further, the T/C (T/C endpoint: mean survival time, dose: 6.6 mg/kg/injection, schedule: Q01DX001 (ip), vehicle: saline) is given as 177, 196, 227, 288, 459 % of control; the T/C (T/C endpoint: mean survival time, dose: 8.0 mg/kg/injection, schedule: Q04DX003 (ip), vehicle: saline) was 129 % of control [9 of 10 alive]; the T/C (T/C endpoint: mean survival time, dose: 10.0 mg/kg/injection, schedule: Q01DX001 (ip), vehicle: saline, evaluated on day 45) was 309 % of control; the T/C (T/C endpoint: mean survival time, dose: 10.0 mg/kg/injection, schedule: Q01DX001 (ip), vehicle: saline, evaluated on day 60) is 220, 290, 350, 353, 394, 655 % of control [9 of 10 alive]. Further, the survivor count is, setting by setting: under setting [2], 3 of 3; (T/C endpoint: mean survival time, dose: 4.0 mg/kg/injection, schedule: Q01DX009 (sc), vehicle: saline) 10 of 10; (T/C endpoint: mean survival time, dose: 4.0 mg/kg/injection, schedule: Q03HX008 (ip), vehicle: saline) 6 of 10; (T/C endpoint: mean survival time, dose: 4.0 mg/kg/injection, schedule: Q03HX016 (ip), vehicle: saline) 7 of 10; (T/C endpoint: mean survival time, dose: 4.0 mg/kg/injection, schedule: Q03HX024 (ip), vehicle: saline) 4 of 10; under setting [3], 3 of 3 and 6 of 6. For the same compound, the survivor count is, setting by setting: (T/C endpoint: mean survival time, dose: 8.0 mg/kg/injection, schedule: Q01DX009 (ip), vehicle: saline) 10 of 10; (T/C endpoint: mean survival time, dose: 8.0 mg/kg/injection, schedule: Q01DX009 (oral), vehicle: saline) 10 of 10; (T/C endpoint: mean survival time, dose: 8.0 mg/kg/injection, schedule: Q01DX009 (sc), vehicle: saline) 8 of 10; (T/C endpoint: mean survival time, dose: 8.0 mg/kg/injection, schedule: Q03HX008 (ip), vehicle: saline) 10 of 10; (T/C endpoint: mean survival time, dose: 16.0 mg/kg/injection, schedule: Q01DX001 (ip), vehicle: saline) 5 of 10; (T/C endpoint: mean survival time, dose: 16.0 mg/kg/injection, schedule: Q01DX001 (oral), vehicle: saline) 4 of 10. The survivor count was 10 of 10 (T/C endpoint: mean survival time, dose: 20.0 mg/kg/injection, schedule: Q01DX001 (ip), vehicle: water); 10 of 10 (T/C endpoint: mean survival time, dose: 32.0 mg/kg/injection, schedule: Q01DX001 (ip), vehicle: saline); 4 of 10 and 8 of 10 (T/C endpoint: mean survival time, dose: 32.0 mg/kg/injection, schedule: Q01DX001 (oral), vehicle: saline); 10 of 10 (T/C endpoint: mean survival time, dose: 32.0 mg/kg/injection, schedule: Q01DX001 (sc), vehicle: saline); 6 of 10 (T/C endpoint: mean survival time, dose: 32.0 mg/kg/injection, schedule: Q08DX002 (oral), vehicle: saline).

With `Cc1cc(CCl)c(C)cc1CCl`, the survivor count runs as follows: (T/C endpoint: mean survival time, dose: 200.0 mg/kg/injection, schedule: Q04DX003 (ip), vehicle: saline with Tween-80) 2 of 3; under setting [4], 0 of 3.

On to `COC(=O)c1cc(Cl)cc(C(=O)OC)c1`, for which the survivor count under setting [5] is recorded as 6 of 6.

As for `CC(C)NCC(O)COc1ccc(O)c(O)c1` (stereo unspecified), the survivor count runs as follows: (T/C endpoint: median survival time, dose: 200.0 mg/kg/injection, schedule: Q01DX009 (ip), vehicle: saline) 0 of 6; (T/C endpoint: median survival time, dose: 400.0 mg/kg/injection, schedule: Q01DX009 (ip), vehicle: saline) 0 of 6.

Turning to `O=C(O)CC1CCC1CC(=O)O` (stereo unspecified), under setting [5], the survivor count is 2 of 6.

With `O=C(Nn1c(=O)c(=O)oc2ccccc21)C(F)(F)F`, the survivor count under setting [4] is recorded as 3 of 6.

Take `CCSC(C(O)C(O)C(O)C(O)CO)n1cnc2c(=S)nc[nH]c21` (stereo unspecified): under setting [5], the T/C is 130 % of control.
